Results reported in US20030040612A1 (MOUNT SINAI SCHOOL OF MEDICINE, published 2003).
These are yes or no findings as the source states them, for the method shown. Binding can be weak; no strength is given. Tags and fused reporters may be left off the sequences shown.

Biological target: tyrosine-phosphorylated TRKB
Assay: yeast two-hybrid

B1: truncated SNT-1 PTB domain lacking the β8 region (residues 2-111), GAL4 AD fusion (other, not shown: large carriers; small tags and cut ends)
chain: GSCCSCPDKDTVPDNHRNKFKVINVDDDGNELGSGIMELTDTELILYTRKRDSVKWHYLCLRRYGYDSNLFSFESGRRCQTGQGIFAFKCARAEELFNMLQEIMQNNSIN
notes: Yeast two-hybrid construct; also called SNT-1 PTB domain protein lacking the β8 strand
For B1, the binding was “binds”.
